{"source": "PubChem BioAssay AID1259405 | NCATS | 2018", "screen": "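Mouse-designed siRNAs used to find CHO productivity engineering targets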 (primary screen)", "cells": "Chinese hamster CHO-K1 ovary cells with stable secreted eGFP expression", "reagent": "single siRNA against mouse genes, 0.8 pmol siRNA per well (2 µl of 400 nM stock)", "time to read-out": "3 days", "measured": "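Percent of the per-plate non-targeting control median for intracellular GFP per well by laser scanning cytometry and for cell viability by ATP luminescence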", "reading the numbers": "GFP, % of control: higher = more GFP per well, higher productivity; viability (ATP), % of control: higher = more viable cells (more ATP)", "call rule": "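Called active when intracellular GFP, relative to negative control, is at or above 120%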", "note": "In all, the deposit lists about 50,000 reagents; below is a part drawn at random. About 4,000 of all reagents (8%) were called active. 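Mouse siRNA library applied to hamster cells; one well for each siRNA.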 The numbers tell different reagents against one gene apart. Reagent sequences are not shown."}
{"gene knocked down": "Kcnj14", "siRNA no.": 1, "GFP, % of control": 70.9, "viability (ATP), % of control": 82.7, "Call": "inactive"}
{"gene knocked down": "Kcnj14", "siRNA no.": 2, "GFP, % of control": 63.4, "viability (ATP), % of control": 70.3, "Call": "inactive"}
{"gene knocked down": "Kcnj14", "siRNA no.": 3, "GFP, % of control": 50.2, "viability (ATP), % of control": 39.9, "Call": "inactive"}
{"gene knocked down": "Fcsk", "siRNA no.": 1, "GFP, % of control": 83.4, "viability (ATP), % of control": 81.1, "Call": "inactive"}
{"gene knocked down": "Fcsk", "siRNA no.": 2, "GFP, % of control": 70.7, "viability (ATP), % of control": 67.1, "Call": "inactive"}
{"gene knocked down": "Dpep3", "siRNA no.": 1, "GFP, % of control": 126, "viability (ATP), % of control": 92.3, "Call": "active"}
{"gene knocked down": "Dpep3", "siRNA no.": 2, "GFP, % of control": 97.7, "viability (ATP), % of control": 111, "Call": "inactive"}
{"gene knocked down": "Dpep3", "siRNA no.": 3, "GFP, % of control": 106, "viability (ATP), % of control": 74.6, "Call": "inactive"}
{"gene knocked down": "Dennd1c", "siRNA no.": 1, "GFP, % of control": 75.9, "viability (ATP), % of control": 60, "Call": "inactive"}
{"gene knocked down": "Dennd1c", "siRNA no.": 2, "GFP, % of control": 79.2, "viability (ATP), % of control": 59.6, "Call": "inactive"}
{"gene knocked down": "Dennd1c", "siRNA no.": 3, "GFP, % of control": 70.9, "viability (ATP), % of control": 81.1, "Call": "inactive"}
{"gene knocked down": "Or51f5", "siRNA no.": 1, "GFP, % of control": 57.1, "viability (ATP), % of control": 42.2, "Call": "inactive"}
{"gene knocked down": "Or51f5", "siRNA no.": 2, "GFP, % of control": 81.8, "viability (ATP), % of control": 68.6, "Call": "inactive"}
{"gene knocked down": "Or51f5", "siRNA no.": 3, "GFP, % of control": 109, "viability (ATP), % of control": 119, "Call": "inactive"}
{"gene knocked down": "Or56a5", "siRNA no.": 1, "GFP, % of control": 37.1, "viability (ATP), % of control": 67.3, "Call": "inactive"}
{"gene knocked down": "Or56a5", "siRNA no.": 2, "GFP, % of control": 78.6, "viability (ATP), % of control": 52, "Call": "inactive"}
{"gene knocked down": "Or56a5", "siRNA no.": 3, "GFP, % of control": 47.6, "viability (ATP), % of control": 102, "Call": "inactive"}
{"gene knocked down": "Ankar", "siRNA no.": 1, "GFP, % of control": 119, "viability (ATP), % of control": 118, "Call": "inactive"}
{"gene knocked down": "Ankar", "siRNA no.": 2, "GFP, % of control": 69.3, "viability (ATP), % of control": 43.7, "Call": "inactive"}
{"gene knocked down": "Ankar", "siRNA no.": 3, "GFP, % of control": 90.9, "viability (ATP), % of control": 93.6, "Call": "inactive"}
{"gene knocked down": "Mllt3", "siRNA no.": 1, "GFP, % of control": 83.2, "viability (ATP), % of control": 73.8, "Call": "inactive"}
{"gene knocked down": "Mllt3", "siRNA no.": 2, "GFP, % of control": 94.7, "viability (ATP), % of control": 97.5, "Call": "inactive"}
{"gene knocked down": "Mllt3", "siRNA no.": 3, "GFP, % of control": 44.4, "viability (ATP), % of control": 63.6, "Call": "inactive"}
{"gene knocked down": "Syvn1", "siRNA no.": 1, "GFP, % of control": 63.7, "viability (ATP), % of control": 52.3, "Call": "inactive"}
{"gene knocked down": "Syvn1", "siRNA no.": 2, "GFP, % of control": 38.1, "viability (ATP), % of control": 32.2, "Call": "inactive"}
{"gene knocked down": "Syvn1", "siRNA no.": 3, "GFP, % of control": 76, "viability (ATP), % of control": 71.3, "Call": "inactive"}
{"gene knocked down": "Pola1", "siRNA no.": 1, "GFP, % of control": 61.3, "viability (ATP), % of control": 63.5, "Call": "inactive"}
{"gene knocked down": "Pola1", "siRNA no.": 2, "GFP, % of control": 94.4, "viability (ATP), % of control": 84.1, "Call": "inactive"}
{"gene knocked down": "Pola1", "siRNA no.": 3, "GFP, % of control": 56.1, "viability (ATP), % of control": 63, "Call": "inactive"}
{"gene knocked down": "Celf1", "siRNA no.": 1, "GFP, % of control": 136, "viability (ATP), % of control": 88.2, "Call": "active"}
{"gene knocked down": "Celf1", "siRNA no.": 2, "GFP, % of control": 43.3, "viability (ATP), % of control": 68.6, "Call": "inactive"}
{"gene knocked down": "Celf1", "siRNA no.": 3, "GFP, % of control": 61.6, "viability (ATP), % of control": 59.5, "Call": "inactive"}
{"gene knocked down": "Lrrc47", "siRNA no.": 1, "GFP, % of control": 53.6, "viability (ATP), % of control": 53.4, "Call": "inactive"}
{"gene knocked down": "Lrrc47", "siRNA no.": 2, "GFP, % of control": 67, "viability (ATP), % of control": 99.2, "Call": "inactive"}
{"gene knocked down": "Lrrc47", "siRNA no.": 3, "GFP, % of control": 58.1, "viability (ATP), % of control": 63.8, "Call": "inactive"}
{"gene knocked down": "Ccser2", "siRNA no.": 1, "GFP, % of control": 67.2, "viability (ATP), % of control": 58.5, "Call": "inactive"}
{"gene knocked down": "Ccser2", "siRNA no.": 2, "GFP, % of control": 58.7, "viability (ATP), % of control": 58.3, "Call": "inactive"}
{"gene knocked down": "Ccser2", "siRNA no.": 3, "GFP, % of control": 79.7, "viability (ATP), % of control": 80.7, "Call": "inactive"}
{"gene knocked down": "Cyp21a1", "siRNA no.": 1, "GFP, % of control": 163, "viability (ATP), % of control": 99, "Call": "active"}
{"gene knocked down": "Cyp21a1", "siRNA no.": 2, "GFP, % of control": 60.5, "viability (ATP), % of control": 62.4, "Call": "inactive"}
{"gene knocked down": "Cyp21a1", "siRNA no.": 3, "GFP, % of control": 109, "viability (ATP), % of control": 64.5, "Call": "inactive"}

Records listed so far whose gene name starts with S or s:
{"gene knocked down": "Syvn1", "siRNA no.": 1, "GFP, % of control": 63.7, "viability (ATP), % of control": 52.3, "Call": "inactive"}
{"gene knocked down": "Syvn1", "siRNA no.": 2, "GFP, % of control": 38.1, "viability (ATP), % of control": 32.2, "Call": "inactive"}
{"gene knocked down": "Syvn1", "siRNA no.": 3, "GFP, % of control": 76, "viability (ATP), % of control": 71.3, "Call": "inactive"}
